Test results from PMC10916992, “APOE Christchurch‐mimetic therapeutic antibody reduces APOE‐mediated toxicity and tau phosphorylation” (Alzheimer's & Dementia, 2023).
Results are given in words; binding and its absence hold for the method and conditions named. Some results given as binding are weak or reduced against the parent protein; the word gives no strength.

Biological target: Recombinant VLDLr (UniProt P98155)
Assay: ELISA; 1 μg/mL recombinant VLDLr coated; serial dilutions of ApoE3 (Acros) alone or with 0.003 μg/μL 7C11 mAb in TBS with 2 mM CaCl2, 2 h RT; detected by anti-His-tag antibody; both purified

binding: binds
Substance: Mammalian-derived (HEK derived) ApoE3, ACROBiosystems (from UniProt P02649 19-317)
